Source: publication PMC8184944, “Crystal structures of aconitase X enzymes from bacteria and archaea provide insights into the molecular evolution of the aconitase superfamily” (Communications Biology, 2021)
Results are given in words; binding and its absence hold for the method and conditions named. Some binding calls cover weakened binding; strength is not graded here. Where a sequence is shown, tags or fusion partners need not be part of it.

Key:
[1] = target: T1, TkAcnXS, small subunit of aconitase X (AcnX Type-IIb) from Thermococcus kodakarensis, (His)6-tag removed (Thermococcus kodakarensis) (UniProt Q5JGJ7); assay: crystal structure; TkAcnX apo-form, 3.4 Å; 200 mM ammonium citrate tribasic pH 7.0, 24% PEG 3350, 20°C; both purified
T1 sequence: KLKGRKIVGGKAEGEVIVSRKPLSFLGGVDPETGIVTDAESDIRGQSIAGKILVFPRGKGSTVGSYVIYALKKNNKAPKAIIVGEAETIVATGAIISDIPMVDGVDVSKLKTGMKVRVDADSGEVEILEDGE

[2] = target: T2, TkAcnXS, small subunit of aconitase X (AcnX Type-IIb) from Thermococcus kodakarensis, with a (His)6-tag at the N terminus (Thermococcus kodakarensis) (UniProt Q5JGJ7); assay: co-purification by nickel-chelating affinity chromatography; both subunits co-expressed in E. coli; (His)6-TkAcnXS held on Ni-NTA Superflow; 50 mM sodium phosphate pH 8.0, 300 mM NaCl, imidazole; SDS-PAGE of the eluate
T2 sequence: T1 sequence

[3] = target: T1, TkAcnXS, small subunit of aconitase X (AcnX Type-IIb) from Thermococcus kodakarensis, (His)6-tag removed (Thermococcus kodakarensis); assay: crystal structure; TkAcnX co-crystallised with 40 mM MVA5P, 1.9 Å; 50 mM ammonium sulfate, 50 mM Bis-Tris pH 6.5, 30% pentaerythritol ethoxylate, 20°C; both purified
[4] = target: T1, TkAcnXS, small subunit of aconitase X (AcnX Type-IIb) from Thermococcus kodakarensis, (His)6-tag removed (Thermococcus kodakarensis); assay: SEC; gel filtration of purified TkAcnX; HiLoad 16/600 Superdex 200 pg, 20 mM Tris-HCl pH 8.0, 150 mM NaCl; native mass estimated; both purified

Measured: binding

B1: TkAcnXL, large subunit of aconitase X (AcnX Type-IIb) from Thermococcus kodakarensis (protein, UniProt Q5JGJ6 1-386)
chain: MYLTKEEELILAGEYGYALQKAMEILVALGDIYGADRLIPIKSAQVAGVSYKNIGDAGIEFLRDFVEAGAKVSVYTTLNPAGIGDDEFMEKQMEVLELYRKMGIEVTSTCTPYYGANLPKFGDHIAWSESSAVSFANSILGARTNREGGPSSLAAAIVGKTPNYGLHLDENRKATVIVDVKAKVKTFADYSVLGYHVGKTLGNDVPYFKNLKPEKTEFLKELGAAMGATGSIALYHVEGETPEYREAITDKLETITVEDSDLKAVRESFQDDWSDIDMILIGCPHASLPEVKEIAELLRMRGKPLKIPLFITASRAVKALADALGYTEIIERYNGKIIPDSCFVVSPIKGWYRGIATNSGKSAFYFRSFGFSVRLDDVENLIKEAP
binds: all assays above
